Data published in patent US8470334B2, “Method of inducing an antiviral immune response against HIV-1 utilizing chimeric HIV Env proteins comprising CD4 mini-proteins or CD4 mimetics” (Novartis Vaccines & Diagnostics, Inc, priority 2002, dated 2013).
pIC50: −log10 of the molar value. Where two headings read alike, the source gives them in different places. At least one compound was matched to its structure with a doubt left. Where a SMILES comes first, the peptide text is derived from it. Bridges are numbered along the chain shown (N, C = ends).

Biological target: gp120 (Human immunodeficiency virus type 1 group M subtype B, UniProt P04578)
Experiment: competitive ELISA of gp120 binding
Parameters: species or system HIV-1

Structure (SMILES) | pIC50 (optimized mini-CD4 with 5 mutations, read-out: binding to gp120, IC50) | pIC50 (competitive ELISA, read-out: specific binding to gp120, IC50)
CC(C)C[C@@H]1NC(=O)CNC(=O)[C@H](CC(C)C)NC(=O)[C@H](CO)NC(=O)[C@H](CCCCN)NC(=O)[C@@H]2CSSC[C@@H](C(=O)NCC(=O)N3CCC[C@H]3C(=O)O)NC(=O)[C@H](C)NC(=O)[C@@H]3CSSC[C@H](NC(=O)[C@H](CCCNC(=N)N)NC(=O)[C@H](C)NC(=O)[C@H](CC(C)C)NC(=O)[C@H](CC(N)=O)NC(=O)[C@@H](N)CSSC[C@H](NC(=O)[C@H](CCCCN)NC(=O)CNC(=O)[C@H](CC(C)C)NC1=O)C(=O)N[C@@H](C)C(=O)NCC(=O)N[C@@H](CO)C(=O)N[C@@H](Cc1ccccc1)C(=O)N3)C(=O)N[C@@H](CCC(N)=O)C(=O)N[C@@H](CC(C)C)C(=O)N[C@@H](CCCNC(=N)N)C(=O)N2 [CD4M9] | 6.40 | –
CC(C)C[C@@H]1NC(=O)CNC(=O)[C@H](CC(C)C)NC(=O)[C@H](CO)NC(=O)[C@H](CCCCN)NC(=O)[C@@H]2CSSC[C@@H](C(=O)NCC(N)=O)NC(=O)[C@H]([C@@H](C)O)NC(=O)[C@@H]3CSSC[C@H](NC(=O)[C@H](CCCNC(=N)N)NC(=O)[C@H](C)NC(=O)[C@H](CC(C)C)NC(=O)[C@H](CC(N)=O)NC(=O)[C@@H](N)CSSC[C@H](NC(=O)CNC(=O)CNC(=O)[C@H](CCCCN)NC1=O)C(=O)N[C@@H](CCC(N)=O)C(=O)NCC(=O)N[C@@H](CO)C(=O)N[C@@H](Cc1ccccc1)C(=O)N3)C(=O)N[C@@H](CCC(N)=O)C(=O)N[C@@H](CC(C)C)C(=O)N[C@@H](CO)C(=O)N2 [rationally designed miniprotein] (H-CNLARCQLSCKSLGLKGGCQGSFCTCG-NH2; disulfide 1-19, 6-24, 10-26; N-terminus and C-terminus assumed) | – | 4.40
